This assay addresses focal adhesion kinase (FAK), endogenous in BT-549 cells (human (endogenous in BT-549)) (UniProt Q05397). The assay can be described thus: proximity labelling; ProtA-TurboID; BT-549 cells permeabilized with 0.04% digitonin, incubated with IgG (control) or anti-FAK antibody, then ProtA-TurboID; biotinylation at 37 C for 10 min; streptavidin pull-down; blot anti-PD-L1.

Chains of the proteins cited; added tags and fusions are not shown. Residues count along the entry.
UniProt Q05397: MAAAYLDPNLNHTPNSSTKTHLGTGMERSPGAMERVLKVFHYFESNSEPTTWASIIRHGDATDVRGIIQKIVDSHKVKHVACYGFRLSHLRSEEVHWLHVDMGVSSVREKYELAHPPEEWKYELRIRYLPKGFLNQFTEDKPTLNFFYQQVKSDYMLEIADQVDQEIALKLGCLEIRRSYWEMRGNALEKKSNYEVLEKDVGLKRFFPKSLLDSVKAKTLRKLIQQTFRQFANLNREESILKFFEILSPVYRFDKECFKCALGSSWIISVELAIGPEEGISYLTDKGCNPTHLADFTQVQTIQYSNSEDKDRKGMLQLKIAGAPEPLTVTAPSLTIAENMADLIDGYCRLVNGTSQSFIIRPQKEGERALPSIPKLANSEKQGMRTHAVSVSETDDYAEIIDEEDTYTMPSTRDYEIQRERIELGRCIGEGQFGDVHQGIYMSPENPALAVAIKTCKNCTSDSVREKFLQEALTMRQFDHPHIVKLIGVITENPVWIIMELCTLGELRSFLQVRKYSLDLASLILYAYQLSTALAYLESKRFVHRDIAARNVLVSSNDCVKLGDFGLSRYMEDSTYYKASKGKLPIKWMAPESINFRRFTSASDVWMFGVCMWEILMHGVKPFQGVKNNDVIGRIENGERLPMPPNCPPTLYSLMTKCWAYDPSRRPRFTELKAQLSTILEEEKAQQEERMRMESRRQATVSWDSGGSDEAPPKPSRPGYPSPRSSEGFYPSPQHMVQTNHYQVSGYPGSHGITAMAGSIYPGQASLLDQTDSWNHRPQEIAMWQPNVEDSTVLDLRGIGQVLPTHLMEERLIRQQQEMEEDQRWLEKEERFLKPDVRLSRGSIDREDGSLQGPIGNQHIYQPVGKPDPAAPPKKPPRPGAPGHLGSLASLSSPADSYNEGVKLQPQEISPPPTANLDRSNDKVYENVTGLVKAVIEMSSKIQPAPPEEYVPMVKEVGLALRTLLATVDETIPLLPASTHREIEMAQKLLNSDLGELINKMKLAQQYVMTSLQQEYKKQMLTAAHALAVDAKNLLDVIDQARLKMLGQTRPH
UniProt Q9NZQ7, residues 19-290: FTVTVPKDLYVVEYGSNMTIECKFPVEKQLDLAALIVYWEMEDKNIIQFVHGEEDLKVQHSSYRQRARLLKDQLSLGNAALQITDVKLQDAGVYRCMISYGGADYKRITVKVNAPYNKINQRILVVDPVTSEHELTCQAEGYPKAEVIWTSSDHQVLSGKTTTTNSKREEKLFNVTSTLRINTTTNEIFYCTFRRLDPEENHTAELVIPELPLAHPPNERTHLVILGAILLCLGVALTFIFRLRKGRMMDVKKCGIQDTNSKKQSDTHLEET

No constants are given. Whether binding was seen depends on the method and setting. Binding seen in cells or lysates may run through a third protein. Here binding means that the protein was enriched with, or labelled near, the bait; the list need not be complete.

For the substance “programmed death-ligand 1 (PD-L1), endogenous in BT-549 cells (from UniProt Q9NZQ7 19-290)”, the binding result is listed as “binds”.

For the origin of these results see article PMC12562877.
